# According to PubChem BioAssay AID2551 (National Center for Advancing Translational Sciences (NCATS), 2010):
# Protein sequences, listed by entry. Tags and fused reporters are not part of them. Lines headed by an entry give the natural chain unless they say otherwise; changes in a name come on top.
# UniProt P51450: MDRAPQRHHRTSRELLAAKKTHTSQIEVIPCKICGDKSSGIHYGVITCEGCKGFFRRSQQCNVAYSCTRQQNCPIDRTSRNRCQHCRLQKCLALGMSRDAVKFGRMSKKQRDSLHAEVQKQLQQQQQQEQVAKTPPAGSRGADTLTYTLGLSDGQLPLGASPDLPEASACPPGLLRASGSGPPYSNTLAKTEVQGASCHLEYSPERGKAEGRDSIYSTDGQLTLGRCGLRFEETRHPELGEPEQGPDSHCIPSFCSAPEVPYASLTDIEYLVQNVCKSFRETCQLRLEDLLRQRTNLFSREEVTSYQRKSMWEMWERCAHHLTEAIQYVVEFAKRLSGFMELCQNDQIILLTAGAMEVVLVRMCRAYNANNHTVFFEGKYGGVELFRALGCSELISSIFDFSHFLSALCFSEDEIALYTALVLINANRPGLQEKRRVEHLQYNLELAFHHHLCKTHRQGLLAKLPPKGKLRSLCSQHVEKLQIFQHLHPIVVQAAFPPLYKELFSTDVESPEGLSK
# Among all 310,000 compounds or so, about 17,000 (5.5%) were called active. The inconclusive results got no clear call from the source; some entries with a clear call stand among them for comparison. Calls follow the shape of the dose curve; as a rule, active = well fitted inhibition curve with a large enough effect; inconclusive = small, poorly fitted or top-dose-only effect, or effect the other way; inactive = no such curve, though single readings can be large or run the other way. Potencies beside an inconclusive call are fits to weak or partial responses and may not hold up.
# Molecular target: Nuclear receptor ROR-gamma (Mus musculus) (UniProt P51450)
# Test: qHTS for inhibitors of ROR gamma transcriptional activity; also: nearly all actives have a fitted effect of over 60% in size
# Details: Drosophila S2 Gal4-RORgamma UAS-luciferase reporter, 20 h; activity change, negative = inhibition: at 53.6 µM (top of the series)
# Method in brief: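 A Gal4/UAS one-hybrid system in insect cells: metallothionein-promoter Gal4–ROR gamma fusion plus Photinus luciferase reporter. Copper sulfate 700 uM final, 20 hr ambient incubation, luminescent detection after 10 min with reagent.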
# % is scaled to controls: 0 for no effect and ±100 for the full control effect; potency is read from the fitted curve at half-maximal effect.
Structure (SMILES),Potency,"activity change, negative = inhibition"
CCOc1ccc(C(=O)C2CCN(C(=O)c3ccc([N+](=O)[O-])cc3)CC2)cc1,"inconclusive: 22.4 µM [activator, single point]",–
O=C1CC(C(=O)Nc2ncccn2)C(c2ccccc2)O1 (stereo not given),"inconclusive: 6.31 µM [inhibitor, single point]",–
COc1ccc(CCn2c(=S)[nH]c3ccc(N4CCOCC4)cc3c2=O)cc1OC,active: 12.6 µM,–
CCCNC(=S)Nc1cccc(C(F)(F)F)c1,active: 10 µM,–
NS(=O)(=O)c1ccc(CCNC(=O)c2ccc(CS(=O)(=O)c3ccc(Br)cc3)o2)cc1,inactive,–
CCN(CC(=O)N1CCCC1)S(=O)(=O)c1ccc(OC)cc1,inactive,–
COc1ccc(CN=C2NC(=O)CC(C(=O)Nc3ccc(Cl)cc3)S2)cc1 (stereo not given),"inconclusive: 3.16 µM [activator, single point]",–
CC[C@H]1C(c2cccc(Cl)c2)=NN(c2ccccc2)[C@@H]1CO,"inconclusive: 44.7 µM [inhibitor, single point]",–
COc1ccc(C(=O)Nc2nc3ccccc3[nH]2)cc1OC,active: 11.2 µM,–
S=C(NC1CCCC1)NC1CCCC1,active: 2.51 µM,–
CCOc1cc(NC(=S)Nc2cccc(OC)c2)c(OCC)cc1NC(=O)C1CC1,active: 7.08 µM,–
CCc1ccccc1NC(=O)c1ccc(CN2CCC(Cc3ccccc3)CC2)cc1,inactive,–
O=C(COC(=O)c1ccc2c(c1)S(=O)(=O)c1ccccc1C2=O)NC1CC1,inactive,–
Cc1noc(C)c1-c1nc(N2CCN(C)CC2)c2ccccc2n1,inactive,–
COc1ccc(OCc2cc(C(=O)N(C)CC3CCCCO3)no2)c(Cl)c1 (stereo not given),"inconclusive: 11.2 µM [activator, partial curve]",–
CN(C)c1ccc(C(=O)/C=C/c2ccccc2)cc1,active: 11.2 µM,–
COc1ccc(NC(=O)CCC(=O)c2cccs2)cc1S(=O)(=O)Nc1ccccc1Cl,inactive,–
CC1CCCN(c2ccc(/C=C(\C#N)c3nn(-c4ccccc4)c(N)c3C#N)cc2[N+](=O)[O-])C1 (stereo not given),inactive,–
Cc1ccc(NC(=O)C2C(=O)N(CCO)C3(C)CC2c2ccccc2O3)cc1 (stereo not given),"inconclusive: 3.16 µM [activator, single point]",–
CN(C)CC(O)CN1C(=O)NC(C)(C)C1=O (stereo not given),inactive,–
Cc1nc2ccc(NC(=O)c3cncc(Br)c3)cc2s1,"inconclusive: 3.55 µM [activator, full curve]",–
COc1ccc(N2CCN(C(=O)c3ccc(N(C)S(=O)(=O)c4ccc(OC)cc4)cc3)CC2)cc1,inactive,–
FC(F)(F)c1ccccc1NC(=S)N1CCN(c2ccccn2)CC1,"inconclusive: 25.1 µM [inhibitor, single point]",–
CSc1ncc(CN2CCc3c([nH]c4ccccc34)C2C(C)(C)C)cn1 (stereo not given),"inconclusive: 15.8 µM [activator, partial curve, poor fit]",–
C#CCn1c(=NC(=O)c2ccc(S(=O)(=O)N3CCc4ccccc4C3)cc2)sc2cc(S(N)(=O)=O)ccc21,active: 11.2 µM,–

# A few values from the list.
# In Potency, `O=C1CC(C(=O)Nc2ncccn2)C(c2ccccc2)O1` (stereo not given) has the entry inconclusive: 6.31 µM [inhibitor, single point]
# In Potency, `CCOc1ccc(C(=O)C2CCN(C(=O)c3ccc([N+](=O)[O-])cc3)CC2)cc1` has the entry inconclusive: 22.4 µM [activator, single point]
# In Potency, `CSc1ncc(CN2CCc3c([nH]c4ccccc34)C2C(C)(C)C)cn1` (stereo not given) has the entry inconclusive: 15.8 µM [activator, partial curve, poor fit]
# In Potency, `C#CCn1c(=NC(=O)c2ccc(S(=O)(=O)N3CCc4ccccc4C3)cc2)sc2cc(S(N)(=O)=O)ccc21` has the entry active: 11.2 µM

# Later entries:

Structure (SMILES),Potency,"activity change, negative = inhibition"
CCOC(=O)c1c(-c2ccc(F)cc2)csc1NC(=O)c1c(-c2ccccc2)noc1C,"inconclusive: 6.31 µM [activator, single point]",–
CC1CCCCC1NC(=O)c1cc2c(=O)n3ccccc3nc2n1C (stereo not given),"inconclusive: 22.4 µM [activator, single point]",–
Cc1[nH]n(C(N)=S)c(=O)c1N=Nc1ccccc1C(F)(F)F,active: 0.316 µM,–
O=C1NCCCN1Cc1ccc(Cl)cc1,inactive,–
CCOc1ccc(/C=C2/SC(=S)N(CCC(=O)Nc3ccc(C(=O)O)cc3)C2=O)cc1,"inconclusive: 2.24 µM [inhibitor, partial curve]",–
COc1ccc(NC(=O)CSc2[nH]c(=O)cc(C)c2C#N)cc1OC,inactive,–
Cc1ccc(NC(=S)NCc2ccc(F)cc2)c(C)c1,active: 5.62 µM,–
CC(=O)Cc1nsc(Nc2ccc3c(c2)OCCO3)n1,"inconclusive: 0.112 µM [activator, full curve, poor fit]",–
O=C(Nc1nnc(-c2ccncc2)o1)c1ccc2ccccc2c1,active: 1.12 µM,–
CC1=NN(C(=O)CSCc2ccccc2)C(O)(c2ccc(F)cc2)C1 (stereo not given),active: 7.08 µM,–
CN(C(=O)c1cc(S(=O)(=O)N2CCCCC2)c[nH]1)C1CCCCC1,"inconclusive: 7.08 µM [activator, partial curve]",–
O=C(CCN1CCOCC1)c1ccc(Br)cc1,"inconclusive: 22.4 µM [inhibitor, single point]",–
COc1cccc(C(=O)Nc2nnc(SCC(=O)NC3CC3)s2)c1,"inconclusive: 35.5 µM [inhibitor, single point]",–
COC(=O)c1c(C)[nH]c(C(=O)/C=C/c2ccccc2F)c1C,"inconclusive: 1 µM [inhibitor, full curve, poor fit]",–
Cc1ccc(S(=O)(=O)N2CCN(C(=O)CSc3ncc(C(F)(F)F)cc3Cl)CC2)cc1,"inconclusive: 35.5 µM [activator, single point]",–
CN(CC(=O)Nc1sc2c(c1C#N)CCCCC2)Cc1nc2ccccc2c(=O)[nH]1,active: 12.6 µM,–
O=C(CSCc1ccccc1Cl)NN=C1CCCCCC1,inactive,–
COc1ccc2c(c1)-c1nc(/N=C/c3c(O)ccc4ccccc34)sc1CC2,active: 15.8 µM,–
CCc1cc2c(=O)n(Cc3ccco3)c(SCc3c(C)noc3C)nc2s1,"inconclusive: 35.5 µM [inhibitor, single point]",–
O=C(NC1CCCCC1)NC1(C(=O)NCCCN2CCOCC2)CCCCC1,"inconclusive: 35.5 µM [inhibitor, single point]",–
CCOC(=O)c1c(C)oc2ccc(NS(=O)(=O)c3ccc4c5c(cccc35)C(=O)N4)cc12,"inconclusive: 20 µM [activator, partial curve]",–
CCCCC[C@H](O)/C=C/C=C\C/C=C\CCCCCCC(=O)O,inactive,–
CCOC(=O)N1CCN(C(=O)c2cnn3ccccc23)CC1,"inconclusive: 10 µM [activator, partial curve, poor fit]",–
CCOC(=O)N1CCN(C(=O)CSCC(=O)Nc2nc(-c3ccc(-c4ccccc4)cc3)cs2)CC1,"inconclusive: 2.24 µM [activator, full curve]",–
O=C(CSc1nc(-c2ccco2)cc(C(F)(F)F)n1)N1CCN(c2cccc(Cl)c2)CC1,"inconclusive: 20 µM [activator, single point]",–

Structure (SMILES),Potency,"activity change, negative = inhibition"
O=C(O)c1cc(-c2ccc(/C=N/Nc3ccc(Cl)cc3)o2)ccc1Cl,"inconclusive: 17.8 µM [activator, partial curve]",–
CCOC(=O)C1CCCN(C(=S)NC(=O)/C=C/c2ccc(F)cc2)C1 (stereo not given),active: 10 µM,–
CC(CCCC(C)(C)O)NC(=O)c1ccc2oc(CCc3ccccc3)nc2c1 (stereo not given),"inconclusive: 15.8 µM [activator, single point]",–
Nc1ncc(-c2nnnn2-c2ccc(Cl)cc2)c(-c2ccc(Cl)cc2)n1,"inconclusive: 35.5 µM [inhibitor, single point]",–
Cc1cccc(C2CC(c3ccc(Cl)cc3)Nc3nc(N)nn32)c1 (stereo not given),inactive,–
C=CCn1c(SCCC)nc(O)cc1=O,"inconclusive: 3.16 µM [inhibitor, single point]",–
COCCCNc1nc(N)c([N+](=O)[O-])c(Nc2cc(OC)ccc2OC)n1,inactive,–
Cc1[nH]c(/C=C2/C(=O)Nc3ccc(S(=O)(=O)Cc4c(Cl)cccc4Cl)cc32)c(C)c1C(=O)N1CCCC1CN1CCCC1 (stereo not given),"inconclusive: 22.4 µM [inhibitor, single point]",–
O=C(CSCc1ccc(F)cc1)N1CCN(c2ccc(F)cc2)CC1,"inconclusive: 11.2 µM [activator, partial curve]",–
Cc1cc(-c2n[nH]c(=S)n2/N=C/c2sccc2C)n[nH]1,inactive,–
Cc1ccc(C2CC(c3cccc(NS(C)(=O)=O)c3)=NN2S(C)(=O)=O)cc1 (stereo not given),"inconclusive: 11.2 µM [activator, partial curve]",–
CCCCOCC(O)Cn1c(C)nc2ccccc21 (stereo not given),–,inactive: -16.5% [at 10 µM]
Cc1cccc(N2CCN(C3CCCCC3NS(=O)(=O)c3ccccc3)CC2C)c1 (stereo not given),inactive,–
Cn1c(CN2CCN(c3cccc(Cl)c3)CC2)nc2ccccc21,"inconclusive: 8.91 µM [inhibitor, partial curve, poor fit]",–
COC(=O)NC1(C(F)(F)F)NC(=O)N(C2CCCCC2)C1=O (stereo not given),"inconclusive: 0.0056 µM [inhibitor, full curve, poor fit]",–
O=C(O)c1cc2nccc(-c3ccc(F)cc3)n2n1,inactive,–
CCC(C)NC(=S)N1CCN(C(c2ccccc2)c2ccccc2)CC1 (stereo not given),active: 11.2 µM,–
COc1cc2c(cc1NC(=O)CSCC(=O)O)oc1ccccc12,"inconclusive: 7.94 µM [inhibitor, partial curve]",–
CN(c1cccc(Cl)c1)S(=O)(=O)c1cccc(C(=O)Nc2nc3ccccc3[nH]2)c1,active: 2.82 µM,–
CCOC(=O)c1cc2occc2n1CC(=O)Nc1ccc(OC)cc1OC,inactive,–
CCOc1ncccc1C(=O)OCC(=O)N1CCN(S(=O)(=O)c2ccc(Cl)cc2)CC1,inactive,–
NS(=O)(=O)c1ccc(NC(=O)CSc2ccccc2)cc1,"inconclusive: 35.5 µM [activator, single point]",–
CCCCOC(=O)CSc1nnc(-c2cc(OC)c(OC)c(OC)c2)o1,inactive,–
O=c1c2ccccc2nc2ccc(NCc3ccco3)nn12,inactive,–
Cc1oc(C(C)(C)C)cc1C(=O)N1CCN(C(c2ccccc2)c2ccccc2)CC1,"inconclusive: 31.6 µM [activator, single point]",–
